From PMC8839081 (Molecules, 2022)
Values joined by “and” are separate entries in the source; they are usually repeats but may differ in a detail not shown here. Equal entries are not always repeated.

Test system: murine macrophages (cell line J774)
Test: Cytotoxicity on murine macrophages (WST-1), used for the selectivity index
Format: cell-based, Mouse
Conditions: J774 macrophages vs bloodstream T. b. brucei

Structure (SMILES) | SI (ratio EC50 murine macrophage/EC50 T. b. brucei)
COC(=O)C1C2C=CC(C)(C3OC(C)(C)OC23)N1CCc1c[nH]c2ccccc12 [Compound 6, (1S, 3R, 4S, 5R, 6S)-Methyl N-(2-(3-indolyl)ethyl)-1-methyl-5,6-isopropylidendioxy-2-azabicycle[2.2.2]-7-octenen-3-carboxylate] | > 12
CC(C)C(C)(C)[Si](C)(C)OCC1C2C=CC(C)(C3OC(C)(C)OC23)N1CCc1c[nH]c2ccccc12 [Compound 11, (1S, 3R, 4S, 5S, 6R)-N-(2-(3-indolyl)ethyl)-1-methyl-3-(dimethyl(1,1,2-trimethylpropyl)silyloxy)methyl-5,6-isopropylidendioxy-2-azabicycle[2.2.2]-7-octene] | 4 and 3.9
CC1(C)OC2C3C=CC(C)(C2O1)N(CCc1c[nH]c2ccccc12)C3COCc1ccccc1 [Compound 14, (1S, 3R, 4S, 5S, 6R)-N-(2-(3-indolyl)ethyl)-1-methyl-3-benzyloximethyl-5,6-isopropylidendioxy-2-azabicycle[2.2.2]-7-octene] | 30 and 29.6
CC1(C)OC2C3C=CC(C)(C2O1)N(CCc1c[nH]c2ccccc12)C3COC(=O)Cc1c[nH]c2ccccc12 [Compound 15, (1S, 3R, 4S, 5S, 6R)-N-(2-(3-indolyl)ethyl)-1-methyl-3-(2-(1H-3-indolyl)acetyloxy)methyl-5,6-isopropylidendioxy-2-azabicycle[2.2.2]-7-octene] | 6 and 5.7
